# Measured values from the supplement of paper PMC11732987, “Enantioselective OTUD7B fragment discovery through chemoproteomics screening and high-throughput optimisation” (Communications Chemistry, 2025).
# Amino acid sequences for entries named in this document (tags omitted). A change or cut given only in a name is not applied to a line headed by its entry. Residues count along the entry.
# UniProt Q15468: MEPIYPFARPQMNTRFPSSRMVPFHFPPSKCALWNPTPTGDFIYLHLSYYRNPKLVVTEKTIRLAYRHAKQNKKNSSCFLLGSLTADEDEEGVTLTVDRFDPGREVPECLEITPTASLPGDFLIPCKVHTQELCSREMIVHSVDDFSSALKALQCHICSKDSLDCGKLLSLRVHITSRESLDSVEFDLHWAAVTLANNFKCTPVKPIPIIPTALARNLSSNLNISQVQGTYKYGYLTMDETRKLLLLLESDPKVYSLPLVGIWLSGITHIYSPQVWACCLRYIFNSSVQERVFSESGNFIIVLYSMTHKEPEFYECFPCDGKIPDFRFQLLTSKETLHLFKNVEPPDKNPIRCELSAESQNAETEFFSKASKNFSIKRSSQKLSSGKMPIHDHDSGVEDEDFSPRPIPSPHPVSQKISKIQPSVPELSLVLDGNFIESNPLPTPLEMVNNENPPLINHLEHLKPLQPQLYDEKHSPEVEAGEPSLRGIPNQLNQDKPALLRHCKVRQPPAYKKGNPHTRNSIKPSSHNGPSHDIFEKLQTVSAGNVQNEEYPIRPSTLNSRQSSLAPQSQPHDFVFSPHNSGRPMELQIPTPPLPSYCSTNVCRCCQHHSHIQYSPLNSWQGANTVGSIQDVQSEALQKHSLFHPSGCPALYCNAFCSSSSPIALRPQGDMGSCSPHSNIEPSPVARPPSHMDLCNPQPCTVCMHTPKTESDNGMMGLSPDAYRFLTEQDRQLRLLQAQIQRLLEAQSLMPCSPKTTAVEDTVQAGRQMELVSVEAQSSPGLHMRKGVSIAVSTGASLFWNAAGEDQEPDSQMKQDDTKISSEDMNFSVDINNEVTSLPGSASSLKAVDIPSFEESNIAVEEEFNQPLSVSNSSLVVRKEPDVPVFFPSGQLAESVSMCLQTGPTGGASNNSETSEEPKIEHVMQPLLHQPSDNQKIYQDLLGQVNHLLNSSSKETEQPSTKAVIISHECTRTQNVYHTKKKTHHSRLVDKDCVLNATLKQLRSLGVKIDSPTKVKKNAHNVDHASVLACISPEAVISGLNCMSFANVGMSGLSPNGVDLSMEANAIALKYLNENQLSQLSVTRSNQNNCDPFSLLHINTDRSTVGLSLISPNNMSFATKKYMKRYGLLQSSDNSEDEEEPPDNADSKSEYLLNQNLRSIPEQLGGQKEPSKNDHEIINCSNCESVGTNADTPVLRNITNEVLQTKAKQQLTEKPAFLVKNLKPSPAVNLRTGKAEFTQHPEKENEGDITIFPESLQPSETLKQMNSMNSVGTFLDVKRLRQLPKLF
# UniProt Q9P246, whole entry, looked up: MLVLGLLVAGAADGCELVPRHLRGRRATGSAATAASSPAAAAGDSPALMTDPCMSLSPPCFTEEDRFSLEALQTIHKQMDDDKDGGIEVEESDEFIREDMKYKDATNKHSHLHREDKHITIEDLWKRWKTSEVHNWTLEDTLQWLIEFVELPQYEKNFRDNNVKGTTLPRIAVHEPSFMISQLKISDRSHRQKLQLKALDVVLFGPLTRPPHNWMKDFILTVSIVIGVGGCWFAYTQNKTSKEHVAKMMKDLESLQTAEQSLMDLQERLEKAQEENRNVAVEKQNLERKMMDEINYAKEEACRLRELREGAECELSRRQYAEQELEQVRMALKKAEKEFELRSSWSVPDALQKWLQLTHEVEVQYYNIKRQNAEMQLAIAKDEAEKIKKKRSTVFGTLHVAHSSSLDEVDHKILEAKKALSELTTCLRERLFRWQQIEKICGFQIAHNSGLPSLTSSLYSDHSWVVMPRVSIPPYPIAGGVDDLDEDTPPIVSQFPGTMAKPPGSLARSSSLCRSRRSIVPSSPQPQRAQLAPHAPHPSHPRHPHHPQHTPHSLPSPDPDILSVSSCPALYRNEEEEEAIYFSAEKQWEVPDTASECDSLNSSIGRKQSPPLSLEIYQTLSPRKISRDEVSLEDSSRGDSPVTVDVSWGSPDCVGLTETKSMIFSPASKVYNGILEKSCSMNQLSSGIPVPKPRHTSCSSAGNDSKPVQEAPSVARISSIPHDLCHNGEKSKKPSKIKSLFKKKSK
# UniProt Q13242: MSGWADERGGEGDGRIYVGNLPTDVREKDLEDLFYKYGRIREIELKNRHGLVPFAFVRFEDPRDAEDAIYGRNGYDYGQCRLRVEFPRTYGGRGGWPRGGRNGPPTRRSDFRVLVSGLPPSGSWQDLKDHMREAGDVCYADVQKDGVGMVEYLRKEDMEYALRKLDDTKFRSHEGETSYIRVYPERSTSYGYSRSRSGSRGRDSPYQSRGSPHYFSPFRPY
# UniProt Q9C0H9: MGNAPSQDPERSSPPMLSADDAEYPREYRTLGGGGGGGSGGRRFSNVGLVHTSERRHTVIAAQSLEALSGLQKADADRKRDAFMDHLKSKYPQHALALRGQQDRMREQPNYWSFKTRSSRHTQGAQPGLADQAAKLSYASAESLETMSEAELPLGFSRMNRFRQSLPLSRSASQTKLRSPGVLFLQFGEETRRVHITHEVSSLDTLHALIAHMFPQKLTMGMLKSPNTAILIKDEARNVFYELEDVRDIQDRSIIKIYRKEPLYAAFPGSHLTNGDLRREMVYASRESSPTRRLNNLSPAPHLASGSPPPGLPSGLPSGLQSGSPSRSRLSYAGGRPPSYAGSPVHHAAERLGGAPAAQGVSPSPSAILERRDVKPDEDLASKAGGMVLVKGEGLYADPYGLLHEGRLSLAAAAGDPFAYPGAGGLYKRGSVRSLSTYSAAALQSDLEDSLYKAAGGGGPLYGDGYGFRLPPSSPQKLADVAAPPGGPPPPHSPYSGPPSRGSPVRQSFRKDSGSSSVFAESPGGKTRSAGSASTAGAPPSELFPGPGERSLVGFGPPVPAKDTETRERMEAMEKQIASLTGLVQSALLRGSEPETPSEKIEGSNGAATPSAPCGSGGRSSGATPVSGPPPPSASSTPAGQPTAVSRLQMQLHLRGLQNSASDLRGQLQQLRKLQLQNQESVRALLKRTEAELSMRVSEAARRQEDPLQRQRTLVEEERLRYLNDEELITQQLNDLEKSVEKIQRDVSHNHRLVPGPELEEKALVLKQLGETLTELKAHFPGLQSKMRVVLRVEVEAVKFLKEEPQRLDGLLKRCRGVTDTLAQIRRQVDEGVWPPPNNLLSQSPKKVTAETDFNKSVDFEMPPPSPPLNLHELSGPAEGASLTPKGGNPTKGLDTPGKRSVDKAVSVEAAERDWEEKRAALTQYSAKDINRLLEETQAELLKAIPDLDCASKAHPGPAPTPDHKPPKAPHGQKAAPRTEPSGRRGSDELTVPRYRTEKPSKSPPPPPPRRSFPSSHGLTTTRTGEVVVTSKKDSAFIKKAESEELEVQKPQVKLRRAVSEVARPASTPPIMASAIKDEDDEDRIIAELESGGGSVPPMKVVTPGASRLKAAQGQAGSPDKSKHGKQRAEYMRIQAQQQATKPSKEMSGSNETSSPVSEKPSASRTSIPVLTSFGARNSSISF
# UniProt Q8N2I9: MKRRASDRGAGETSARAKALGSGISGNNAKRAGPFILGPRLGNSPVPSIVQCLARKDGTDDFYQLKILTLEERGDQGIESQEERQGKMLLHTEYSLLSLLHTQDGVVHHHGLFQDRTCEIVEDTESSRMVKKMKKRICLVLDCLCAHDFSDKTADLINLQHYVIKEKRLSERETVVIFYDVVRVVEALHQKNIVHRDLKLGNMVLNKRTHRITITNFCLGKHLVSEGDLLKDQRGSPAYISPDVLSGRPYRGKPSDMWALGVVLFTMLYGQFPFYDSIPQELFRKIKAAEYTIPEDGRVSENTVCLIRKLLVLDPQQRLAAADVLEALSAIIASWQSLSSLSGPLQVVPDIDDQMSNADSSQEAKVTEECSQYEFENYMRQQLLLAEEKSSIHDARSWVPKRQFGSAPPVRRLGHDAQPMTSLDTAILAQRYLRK
# UniProt O14662: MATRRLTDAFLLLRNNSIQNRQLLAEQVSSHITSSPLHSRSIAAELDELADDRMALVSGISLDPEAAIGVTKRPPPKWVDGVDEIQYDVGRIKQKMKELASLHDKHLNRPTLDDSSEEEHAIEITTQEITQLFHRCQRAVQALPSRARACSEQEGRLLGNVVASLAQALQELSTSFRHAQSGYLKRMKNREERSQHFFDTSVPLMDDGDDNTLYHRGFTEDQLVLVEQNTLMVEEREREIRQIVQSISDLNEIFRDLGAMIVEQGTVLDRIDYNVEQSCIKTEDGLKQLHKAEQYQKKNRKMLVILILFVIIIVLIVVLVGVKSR
# UniProt Q9HBM1: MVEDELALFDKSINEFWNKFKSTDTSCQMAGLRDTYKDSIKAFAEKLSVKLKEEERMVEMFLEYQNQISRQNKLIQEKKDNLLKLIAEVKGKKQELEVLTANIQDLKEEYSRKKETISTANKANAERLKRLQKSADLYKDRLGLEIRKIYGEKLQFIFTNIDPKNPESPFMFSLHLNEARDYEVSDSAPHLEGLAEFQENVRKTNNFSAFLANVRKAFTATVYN
# UniProt Q9NRL3: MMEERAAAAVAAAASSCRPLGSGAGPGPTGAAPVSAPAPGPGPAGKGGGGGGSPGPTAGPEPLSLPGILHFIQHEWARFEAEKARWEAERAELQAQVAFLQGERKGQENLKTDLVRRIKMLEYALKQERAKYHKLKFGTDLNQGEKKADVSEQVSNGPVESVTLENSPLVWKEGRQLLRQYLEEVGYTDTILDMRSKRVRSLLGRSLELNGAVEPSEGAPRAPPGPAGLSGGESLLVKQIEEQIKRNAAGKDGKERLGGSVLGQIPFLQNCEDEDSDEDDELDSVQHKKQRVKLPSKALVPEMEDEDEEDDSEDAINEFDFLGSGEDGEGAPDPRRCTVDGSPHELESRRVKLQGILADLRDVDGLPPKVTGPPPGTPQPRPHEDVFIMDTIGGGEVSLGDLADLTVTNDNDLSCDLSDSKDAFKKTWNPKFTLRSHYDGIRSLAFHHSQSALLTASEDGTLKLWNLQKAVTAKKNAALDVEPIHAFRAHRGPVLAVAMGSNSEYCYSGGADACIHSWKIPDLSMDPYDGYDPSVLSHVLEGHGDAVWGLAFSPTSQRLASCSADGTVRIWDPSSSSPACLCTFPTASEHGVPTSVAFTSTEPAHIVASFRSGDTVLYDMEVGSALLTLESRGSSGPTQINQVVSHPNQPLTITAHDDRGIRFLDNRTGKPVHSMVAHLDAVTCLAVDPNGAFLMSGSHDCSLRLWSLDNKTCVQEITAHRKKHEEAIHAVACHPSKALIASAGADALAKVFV
# UniProt Q13190, 23-58: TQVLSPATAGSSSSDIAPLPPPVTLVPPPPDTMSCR
# UniProt Q8N5C6: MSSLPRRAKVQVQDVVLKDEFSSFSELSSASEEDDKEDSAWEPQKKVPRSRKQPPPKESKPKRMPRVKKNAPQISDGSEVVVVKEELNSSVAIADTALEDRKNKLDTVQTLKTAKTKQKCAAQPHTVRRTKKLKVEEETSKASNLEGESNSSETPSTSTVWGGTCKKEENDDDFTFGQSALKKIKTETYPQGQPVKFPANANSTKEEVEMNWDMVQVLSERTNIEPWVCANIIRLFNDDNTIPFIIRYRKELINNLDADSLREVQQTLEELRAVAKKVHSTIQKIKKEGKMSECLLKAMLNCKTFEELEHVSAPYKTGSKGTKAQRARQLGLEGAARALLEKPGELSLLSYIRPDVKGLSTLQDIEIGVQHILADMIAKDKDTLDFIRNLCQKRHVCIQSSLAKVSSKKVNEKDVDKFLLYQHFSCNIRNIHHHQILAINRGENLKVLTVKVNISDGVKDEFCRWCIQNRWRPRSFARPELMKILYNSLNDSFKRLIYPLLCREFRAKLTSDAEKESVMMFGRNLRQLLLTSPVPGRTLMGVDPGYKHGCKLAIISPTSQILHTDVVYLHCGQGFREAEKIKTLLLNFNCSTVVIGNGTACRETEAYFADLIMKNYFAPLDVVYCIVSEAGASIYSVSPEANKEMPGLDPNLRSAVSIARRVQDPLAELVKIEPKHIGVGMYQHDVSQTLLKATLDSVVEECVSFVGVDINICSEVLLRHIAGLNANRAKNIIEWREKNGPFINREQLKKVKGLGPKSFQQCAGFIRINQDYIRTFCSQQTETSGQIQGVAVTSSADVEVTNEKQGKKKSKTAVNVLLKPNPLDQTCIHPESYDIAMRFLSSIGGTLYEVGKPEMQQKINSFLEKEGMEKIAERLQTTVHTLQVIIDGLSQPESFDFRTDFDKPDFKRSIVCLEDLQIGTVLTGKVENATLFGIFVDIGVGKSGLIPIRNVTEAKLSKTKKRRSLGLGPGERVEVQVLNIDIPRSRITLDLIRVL
# UniProt P49458: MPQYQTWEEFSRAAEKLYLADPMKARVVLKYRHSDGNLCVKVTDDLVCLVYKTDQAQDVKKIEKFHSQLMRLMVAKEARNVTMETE
# UniProt Q15527: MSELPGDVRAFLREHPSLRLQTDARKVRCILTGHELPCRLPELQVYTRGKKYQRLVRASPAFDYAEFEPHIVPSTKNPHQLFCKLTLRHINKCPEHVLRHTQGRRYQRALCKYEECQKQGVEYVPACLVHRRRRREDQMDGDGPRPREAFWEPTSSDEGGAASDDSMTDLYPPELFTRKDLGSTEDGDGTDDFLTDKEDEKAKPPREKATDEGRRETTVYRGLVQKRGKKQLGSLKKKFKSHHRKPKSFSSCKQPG
# Some of the results follow. The data scatter; read single values as rough.
# Tests used:
# [1] = compound: ClCC(=O)N[C@@H]1CCCc2ccccc12; experiment: log2 mean competition ratio of IA-DTB cysteine labelling (DMSO/compound) (log2 ratio); higher = stronger cysteine engagement by compound; details: treatment time: 4 h, cell line lysate: HEK293T
# Protocol: (§1)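 IA-DTB competitive cysteine chemoproteomics in HEK293T RIPA lysate. Lysates were treated with compound 29 or 30 at 50 or 200 µM for 4 h, then IA-DTB (500 µM, 1 h), trypsin-digested, NeutrAvidin-enriched and analysed by diaPASEF. Competition ratio = intensity DMSO / intensity compound (n=4 treated, n=64 DMSO); binding: mean log2 CR ≥ 1 and p ≤ 0.05 plus QC filters. Target is the cysteine site.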
# [2] = compound: ClCC(=O)N[C@H]1CCCc2ccccc12; experiment: as above; details: treatment time: 4 h, cell line lysate: HEK293T
# Protocol: as §1
Target,log2 mean competition ratio ([1]; 50 µM),log2 mean competition ratio ([1]; 200 µM),log2 mean competition ratio ([2]; 50 µM),log2 mean competition ratio ([2]; 200 µM)
STIL C752 (UniProt Q15468),0.0907,0.0653,-0.487,0.0681
STIP1 C62,-0.219,0.101,-0.137,0.243
STIM2 C313 (UniProt Q9P246),0.06,0.0523,0.000509,0.169
STAG2 C535 (UniProt Q8N3U4),-0.175,-0.11,-0.073,-0.233
SRSF9 C138 (UniProt Q13242),-0.073,-0.225,-0.326,-0.138
STK31 C563,0.0728,0.00483,0.127,0.0232
STXBP6 C144 (UniProt Q8NFX7),0.0416,-0.197,-0.23,-0.00549
SPTAN1 C1930 (UniProt Q13813),0.00866,-0.00336,-0.38,-0.068
STRN C765 (UniProt O43815),0.326,-0.0901,0.106,-0.109
SPATA5L1 C732 (UniProt Q9BVQ7),0.136,0.234,0.56,0.0416
SRCIN1 C614 (UniProt Q9C0H9),-0.0909,0.273,0.0307,-0.0605
SPTAN1 C1622 (UniProt Q13813),-0.0583,-0.0829,-0.196,0.0706
SPATA5 C291 (UniProt Q8NB90),0.357,0.0971,0.625,0.254
STAT6 C272 (UniProt P42226),0.339,0.0798,0.0667,-0.154
SPG7 C353 (UniProt Q9UQ90),0.0378,-0.0473,0.578,0.163
SPAST C220 (UniProt Q9UBP0),-0.014,0.0739,0.182,0.178
SPATA13 C419,0.0923,0.126,-0.0225,-0.086
STAT2 C676 (UniProt P52630),-0.314,-0.417,-0.52,0.155
STK40 C305 (UniProt Q8N2I9),-0.455,0.193,-0.381,0.0353
STX16 C150 (UniProt O14662),-0.118,0.207,-0.144,0.185
SPINT2 C38,0.137,0.793,-0.289,0.389
SUZ12 C201 (UniProt Q15022),-0.0565,0.0257,0.291,0.146
SRSF1 C148 (UniProt Q07955),-0.123,-0.218,-0.195,-0.0646
SPC25 C27 (UniProt Q9HBM1),0.209,0.0781,0.144,-0.000309

# Quoted from the listing.
# log2 mean competition ratio ([1]; 50 µM), STAT6 C272 (UniProt P42226) reads 0.339
# log2 mean competition ratio ([2]; 50 µM), SRSF1 C148 (UniProt Q07955) reads -0.195
# log2 mean competition ratio ([2]; 50 µM), STRN C765 (UniProt O43815) reads 0.106

# Following part:

Target,log2 mean competition ratio ([1]; 50 µM),log2 mean competition ratio ([1]; 200 µM),log2 mean competition ratio ([2]; 50 µM),log2 mean competition ratio ([2]; 200 µM)
SYNE1 C7251 (UniProt Q8NF91),-0.0176,0.0143,0.0524,-0.00977
SPTBN2 C1140 (UniProt O15020),0.225,-0.156,0.236,-0.0389
STAU1 C574 (UniProt O95793),-0.017,0.329,0.13,0.393
SYNE2 C1032 (UniProt Q8WXH0),0.0978,-0.115,0.0627,-0.0875
STUB1 C180 (UniProt Q9UNE7),0.0445,0.0379,-0.0306,0.32
SPINDOC C12 (UniProt Q9BUA3),0.147,-0.306,-0.0254,-0.0495
SPRTN C205 (UniProt Q9H040),-0.0388,-0.0818,-0.0358,-0.231
STRN4 C562 (UniProt Q9NRL3),-0.126,0.146,-0.25,0.251
STX5 C57 (UniProt Q13190),0.211,0.151,0.849,0.585
SRBD1 C463 (UniProt Q8N5C6),0.0121,-0.0695,-0.348,-0.00406
STON1 C328 (UniProt Q9Y6Q2),-0.0145,-0.143,-0.00426,-0.0405
SYNCRIP C96 (UniProt O60506),0.0255,-0.179,0.0731,-0.0977
SRP9 C48 (UniProt P49458),0.122,-0.393,0.0755,-0.177
STBD1 C337 (UniProt O95210),-0.39,-0.153,-0.303,-0.103
SPTBN1 C112 (UniProt Q01082),0.477,0.0486,0.662,-0.0652
SPATA5L1 C580 (UniProt Q9BVQ7),0.0974,0.252,0.0833,0.38
SYNE2 C4911 (UniProt Q8WXH0),-0.192,-0.0429,-0.0372,-0.104
SUPT3H C186 (UniProt O75486),-0.21,-0.0845,0.0323,0.0494
STEEP1 C11,-0.0821,-0.0311,0.106,-0.0168
SURF2 C127 (UniProt Q15527),-0.00113,0.173,-0.202,0.0139
SPDL1 C467 (UniProt Q96EA4),0.351,3.74e-05,0.77,0.0573
STIP1 C370,-0.219,-0.174,-0.128,-0.0777
SPATA5 C459 (UniProt Q8NB90),0.389,0.911,0.477,0.175
